According to US12247972B2 (priority 2018, dated 2025):

Tested on: CHO cells transiently expressing SCN5A (Nav1.5), CACNα1C (Cav1.2), KCNH2 and ChRWR

## CCN(CC)CC(=O)Nc1c(C)cccc1C [Lidocaine]
  effect on action potential (sodium channel suppression): all action potentials disappeared
